Data published in paper PMC10978942.

Experiments:
[1] = target: T1, GST-ACE1^317-463aa (Trichoderma reesei) (UniProt Q9P8W3); test: pull-down; 20 ug GST-ACE1^317-463aa with 20 ug His-TrSAM in 500 uL 50 mM Tris-HCl pH 6.8, 250 mM NaCl, 1.5% glycerol, 0.6% Triton X-100, 0.1% Tween-80, 4 h at 4 °C; glutathione beads; blots with anti-GST and anti-His; both purified
T1 sequence: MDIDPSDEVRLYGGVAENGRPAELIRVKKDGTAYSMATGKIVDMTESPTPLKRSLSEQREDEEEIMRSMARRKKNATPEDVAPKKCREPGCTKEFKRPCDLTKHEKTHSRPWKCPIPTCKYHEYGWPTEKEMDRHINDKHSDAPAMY

[2] = target: T2, ACE1(RQ)-C-GFP (Trichoderma reesei) (UniProt Q9P8W3); test: split reporter; BiFC with eGFP halves in T. reesei 1D4-6 cultured in 2% glucose repressing medium, 24 h, microscopy
T2 sequence: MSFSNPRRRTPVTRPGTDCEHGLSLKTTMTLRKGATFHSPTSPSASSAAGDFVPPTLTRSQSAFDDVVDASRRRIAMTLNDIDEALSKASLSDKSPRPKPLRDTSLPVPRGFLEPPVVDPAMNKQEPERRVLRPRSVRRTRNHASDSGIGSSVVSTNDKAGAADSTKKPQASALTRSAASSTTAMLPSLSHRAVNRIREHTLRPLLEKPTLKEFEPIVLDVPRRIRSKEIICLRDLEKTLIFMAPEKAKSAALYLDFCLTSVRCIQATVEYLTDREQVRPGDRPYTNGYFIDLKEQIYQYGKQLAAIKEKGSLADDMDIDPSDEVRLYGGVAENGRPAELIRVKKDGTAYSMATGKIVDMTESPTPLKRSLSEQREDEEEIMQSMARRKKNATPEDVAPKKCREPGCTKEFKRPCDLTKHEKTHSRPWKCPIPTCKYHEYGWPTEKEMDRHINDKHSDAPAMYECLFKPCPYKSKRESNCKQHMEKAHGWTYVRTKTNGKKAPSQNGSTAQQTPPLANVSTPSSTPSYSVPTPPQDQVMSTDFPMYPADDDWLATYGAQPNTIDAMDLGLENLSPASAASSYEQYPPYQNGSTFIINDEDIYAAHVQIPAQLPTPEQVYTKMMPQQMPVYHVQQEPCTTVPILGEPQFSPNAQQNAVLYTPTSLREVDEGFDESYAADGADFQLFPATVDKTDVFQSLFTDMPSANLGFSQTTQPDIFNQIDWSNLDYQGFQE

[3] = target: T3, ACE1(RK)-C-GFP (Trichoderma reesei) (UniProt Q9P8W3); test: as above
T3 sequence: T2 sequence with Q383K

[4] = target: T4, ACE1-C-GFP (Trichoderma reesei) (UniProt Q9P8W3); test: as above
T4 sequence: T2 sequence with Q383R

[5] = target: T2, ACE1(RQ)-C-GFP (Trichoderma reesei); test: split reporter; BiFC with eGFP halves in T. reesei 1D4-6, strains induced by lactose
[6] = target: T3, ACE1(RK)-C-GFP (Trichoderma reesei); test: as above
[7] = target: T4, ACE1-C-GFP (Trichoderma reesei); test: as above
[8] = target: T5, ACE1^R383K-BD (Trichoderma reesei) (UniProt Q9P8W3); test: two-hybrid; Matchmaker Gold Yeast Two-Hybrid System; trsam or xyr1 on the GAL4 activation domain (pGADT7), regulators on the GAL4 DNA-binding domain (pGBKT7); growth without histidine and adenine, 3-amino-1,2,4-triazole, X-alpha-gal
T5 sequence: T2 sequence with Q383K

[9] = target: T6, Lae1-BD (Trichoderma reesei) (UniProt G0RNN3); test: as above
T6 sequence: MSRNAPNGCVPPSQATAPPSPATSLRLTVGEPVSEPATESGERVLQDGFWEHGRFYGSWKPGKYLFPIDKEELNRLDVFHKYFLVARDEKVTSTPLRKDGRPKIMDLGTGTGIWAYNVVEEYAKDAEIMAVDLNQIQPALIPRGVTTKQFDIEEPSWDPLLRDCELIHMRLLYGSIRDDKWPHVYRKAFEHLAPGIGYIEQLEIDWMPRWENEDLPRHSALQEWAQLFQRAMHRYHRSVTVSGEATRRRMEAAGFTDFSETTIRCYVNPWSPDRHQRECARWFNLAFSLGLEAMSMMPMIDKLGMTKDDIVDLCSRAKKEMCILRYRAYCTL

[10] = target: T7, ACE1-BD (ACE1 fused with the GAL4 DNA-binding domain) (Trichoderma reesei) (UniProt Q9P8W3); test: as above
T7 sequence: T2 sequence with Q383R

[11] = target: T8, ACE1^R383Q-BD (Trichoderma reesei) (UniProt Q9P8W3); test: as above
T8 sequence: T2 sequence

His-TrSAM (Trichoderma reesei) (enzyme) was tested, and the binding [1] was “binds”.
For “N-GFP-TrSAM (Trichoderma reesei) (enzyme)”, the binding [2] was “binds weakly”, the binding [3] was “binds” and the binding [4] was “binds”. The binding [5] was “no binding (only strains induced by lactose)”, the binding [6] was “binds weakly” and the binding [7] was “binds weakly”.
In the case of “TrSAM-AD (TrSAM fused with the GAL4 activation domain) (Trichoderma reesei) (enzyme)”, the binding [8] was “binds”, the binding [9] was “no binding” and the binding [10] was “binds”. The binding [11] was “no binding”.

Changes are numbered by the printed parent chain. Results are given in words; binding and its absence hold for the method and conditions named. For some assays here: Binding calls can cover weak binding; strength is not graded here. Where a sequence is shown, tags or fusion partners need not be part of it. For some assays here: In cells and extracts the contact can be indirect.
